For data set [1] the following is noted: for average of radioactivity density: blood plasma. The method, then: (§1) Moreover, the condition of the transdermally administration in association with the treatment of applying current is as follows.
(§2) This was funneled into a patch comprising an electrode and an adhesion layer, and cooled down at −80° C. to obtain a desired drug product.
Two NZ family male rabbits to be devoted to the test was bought from […] LABES Co., Ltd., (Charles River Japan, Inc.). […] The observation of the animal during the preliminary breeding and the test, as to a hair coat, a skin and a excretory substance was carried out every day.
The administration route: the transdermally administration in association with the treatment of applying current
The radioactivity density assay in the blood plasma was carried out as follows.
A sample for assay was treated by adding the solubilizing agent, and the measurement of the sample was carried out by using the liquid scintillation counter (LSC-1000, ALOKA). The limit of determinate quantity was two folds of the background, and the lesser value of the limit was determined as ND. The radioactivity density assay in the blood plasma was calculated from the measured value.
The radioactivity density is used as indication pointer, the calibrated concentration of the chemical drug converted with unaltered substance was calculated by the following formula. The calibrated concentration of the chemical drug (μg eq./mL)=The radioactivity density in the sample (dpm/mL)/{the amount of the administration radioactivity (dpm)/the amount of the administration chemical drug (μg)}

How the values of data set [2] were obtained:
as §1, §2
(§3) After that, an embedded freezing block was directed to the cutter of the microtome stage for mounting (CRYOMACROCUT, Leica), and a femoral region thereof was directed to the front, and a neck region was directed to the backside, and was fixed with being in close contact with the backside of the leg to the stage for mounting. When the stage for mounting of microtome was slid, the cutter was contacted perpendicular with the narrow side of the rectangular, the upper surface of this was chipped off as a sliced segment, the sliced segment was in close contact to the adhesive tape, and removed. This operation was repeated a couple dozens times, it was cleaved from the front portion of the knee to the backside portion, a segment of the administration and current-carrying part was (1) to (7) (from the front to the backside) in order of precedence.

The conditions of data set [3]: individual administered for 120 minutes, exposure […].
Description: as §3

For data set [4] the following is noted: pH 2.
The mark [5] stands for this setting: rabbit (1) for 120 min., segment No. (5).
Setting [6] is: rabbit (2) for 30 min., segment No. (2).
Setting [7] is: rabbit (2) for 30 min., segment No. (3).
Setting [8] is: rabbit (2) for 30 min., segment No. (5).
[9] abbreviates: rabbit (2) for 30 min., segment No. (6).

Read-outs that look alike come from different tables or passages of the source.

Take `CC1CC2C3CCC4=CC(=O)C=CC4(C)C3(F)C(O)CC2(C)C1(O)C(=O)COP(=O)([O-])[O-].[Na+].[Na+]` (stereo not drawn) [[^3H] Betamethasone-21-phosphate disodium salt]: the “average of radioactivity density” value is recorded as 271 dpm/mL in data set [1] (30 min. administration individual, 10 minutes); 937 dpm/mL in data set [1] (30 min. administration individual, 20 minutes); 3155 dpm/mL in data set [1] (30 min. administration individual, 30 minutes); 1473.0 dpm/mL in data set [1] (120 min. administration individual, 10 minutes); 3467.0 dpm/mL in data set [1] (120 min. administration individual, 20 minutes); 8575.0 dpm/mL in data set [1] (120 min. administration individual, 30 minutes). Besides, the “average of radioactivity density” value was 24502.2 dpm/mL in data set [1] (120 min. administration individual, 60 minutes); 33662.0 dpm/mL in data set [1] (120 min. administration individual, 90 minutes); 43142.0 dpm/mL in data set [1] (120 min. administration individual, 120 minutes). Besides, in data set [1] (individual administered for 120 minutes, still tended to rise), the “time of maximum numeric value of the radioactive concentration in the blood plasma” value turned out to be 120 min. Moreover, the “concentration of the chemical drug in the epithelial region tissue, 30 minutes individual compared with 120 minutes individual” value in data set [2] (high density region in the epithelium) was determined as 1.35 folds. Also, the “radioactivity density, articular capsule surrounding tissue” value is on record as 0.41 (PSL−BG)/area in data set [2] (setting [5]); 0.09 (PSL−BG)/area in data set [2] (setting [6]); 0.03 (PSL−BG)/area in data set [2] (setting [7]); 0.42 (PSL−BG)/area in data set [2] (setting [8]); 0.3 (PSL−BG)/area in data set [2] (setting [9]). The “radioactivity density, inside of perimysia” value in data set [2] (setting [5]) is 18.03 (PSL−BG)/area; in data set [2] (setting [6]), 0.62 (PSL−BG)/area; in data set [2] (setting [7]) it was 24.62 (PSL−BG)/area; in data set [2] (setting [8]), 13.87 (PSL−BG)/area; in data set [2] (setting [9]), 12.3 (PSL−BG)/area. The “radioactivity density, outside of perimysia” value in data set [2] (setting [5]) is on record as 39.93 (PSL−BG)/area; in data set [2] (setting [6]), 45.44 (PSL−BG)/area; in data set [2] (setting [7]), 47.25 (PSL−BG)/area; in data set [2] (setting [8]), 49.69 (PSL−BG)/area; in data set [2] (setting [9]) it was 57.07 (PSL−BG)/area. The “radioactivity density, maximum blackened region” value in data set [2] (rabbit (1) for 120 min., segment No. (5), disodium salt) is 807 (PSL−BG)/area; in data set [2] (setting [6]), 42.49 (PSL−BG)/area; in data set [2] (setting [7]), 97.16 (PSL−BG)/area; in data set [2] (setting [8]), 1091.13 (PSL−BG)/area; in data set [2] (setting [9]) it was 843.74 (PSL−BG)/area. Moreover, in data set [3], the “intensity of the radioactivity, knee arthrosis of non-administration and non-treatment” value is “background level”.

Regarding `C[C@H]1C[C@H]2[C@@H]3CCC4=CC(=O)C=C[C@]4(C)[C@@]3(F)[C@@H](O)C[C@]2(C)[C@@]1(O)C(=O)COP(=O)([O-])[O-].[Na+].[Na+]` [betamethasone sodium phosphate], the “stability of the chemical drug” value in data set [4] is on record as “increased according to the increase of pH value”.

Source of the values: patent US8652522B2, “Pharmaceutical composition of an iontophoresis” (Teikoku Seiyaku Co., Ltd., priority 2009, dated 2014).
